{"source": "paper doi:10.1101/334276", "biological_target": "T1, V5-pRb (pLX304-pRb-V5) (UniProt P06400)", "T1 sequence": "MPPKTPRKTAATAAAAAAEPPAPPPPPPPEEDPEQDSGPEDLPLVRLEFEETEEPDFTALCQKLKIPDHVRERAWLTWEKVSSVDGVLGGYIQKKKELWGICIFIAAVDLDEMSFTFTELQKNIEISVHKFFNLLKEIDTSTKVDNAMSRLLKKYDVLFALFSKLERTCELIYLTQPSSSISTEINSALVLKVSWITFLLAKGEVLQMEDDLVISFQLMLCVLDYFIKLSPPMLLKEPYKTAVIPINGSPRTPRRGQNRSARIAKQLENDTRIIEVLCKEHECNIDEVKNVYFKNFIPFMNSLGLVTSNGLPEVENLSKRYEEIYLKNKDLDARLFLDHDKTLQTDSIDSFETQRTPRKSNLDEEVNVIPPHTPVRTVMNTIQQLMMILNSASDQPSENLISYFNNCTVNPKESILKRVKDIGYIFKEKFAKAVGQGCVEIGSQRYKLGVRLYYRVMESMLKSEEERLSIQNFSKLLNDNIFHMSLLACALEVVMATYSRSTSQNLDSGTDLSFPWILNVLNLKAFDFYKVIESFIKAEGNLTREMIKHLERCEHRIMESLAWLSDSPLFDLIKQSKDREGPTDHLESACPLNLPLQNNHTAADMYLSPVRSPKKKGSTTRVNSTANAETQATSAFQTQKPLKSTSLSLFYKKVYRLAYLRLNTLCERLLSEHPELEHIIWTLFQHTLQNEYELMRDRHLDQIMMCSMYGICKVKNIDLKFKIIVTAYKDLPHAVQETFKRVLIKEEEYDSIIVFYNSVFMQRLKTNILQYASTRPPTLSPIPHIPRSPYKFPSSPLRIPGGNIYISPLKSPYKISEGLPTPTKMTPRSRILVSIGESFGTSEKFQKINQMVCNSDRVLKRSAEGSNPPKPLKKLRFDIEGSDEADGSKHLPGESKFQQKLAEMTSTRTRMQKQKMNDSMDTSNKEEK", "experiment": "co-IP", "note": "No constants are given. Whether binding was seen depends on the method and setting. Binding seen in cells or lysates may run through a third protein. Binding can be weak; no strength is given. Sequences can lack the tags named with a protein.", "data": [{"substance": "luciferase-fused PP2A (pCIneoLuc-PP2A) (from UniProt P67775) (enzyme)", "values": [{"measurement": "binding", "value": "binds"}]}]}
